64 molecules from PubChem BioAssay AID493014 (National Center for Advancing Translational Sciences (NCATS), 2011) can be followed below.

The experiment in a line: qHTS Assay to Find Inhibitors of Chronic Active B-Cell Receptor Signaling. Conditions: ABC-DLBCL IkBa-CBG/CBR reporter, luminescence ratio (green luciferase fused to IkBa over red control in TMD8 lymphoma cells), 4 h. The essentials: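 Cell line TMD8 (human ABC DLBCL), stably expressing tet-inducible CBG68-IkBa fusion and CBR; IMDM/0.5% FBS; cpd up to 46 uM; dox induction, 4 h, 37C/5% CO2; dual luminescence; green/red ratio; MG132 control.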

Where [1] appears, read: measured here: CBR red luminescence, cell number.
The mark [2] stands for this setting: measured here: IkBa-CBG green luminescence.

The other results are listed elsewhere or left out. Further columns of the screen follow, without active or inactive calls. Compounds called inactive in the main read-out are mostly missing here. Words in brackets tell the shape of the fitted curve; partial curves, single points and poor fits give uncertain potencies.

Usually AC50 stands for the concentration at which the activity in the assay is half-maximal. With `COc1ccc(NC(=O)c2cn(CCC#N)nc2-c2ccc(OC)c(OC)c2)cc1`, the AC50 under setting [1] is 2.24 µM [rising, full curve, poor fit].
Still for that read-out and setting: in the case of `CCCCCSc1cc(O)c(C(CNC)C(C)C)cc1OC` (configuration not stated) it was 18.4 µM [falling, single point]; in that of `Cc1ccc(-c2nc3ccccc3c(=O)n2-c2cc(C)ccn2)cc1`, 3.55 µM [falling, single point]; in that of `CSc1ccc(C(c2c(O)c3ccccc3oc2=O)c2c(C)n(C)n(-c3ccccc3)c2=O)cc1` (configuration not stated), 35.5 µM [falling, partial curve, poor fit].
Still for that read-out and setting: in the case of `COc1cc(/C=N/n2cnnc2)ccc1OC(=O)N(C)C` it was 1.46 µM [rising, full curve, poor fit]; in that of `O=P(Nc1ccccc1)(Nc1ccccc1)Oc1ccccc1`, 2.31 µM [rising, full curve]; in that of `Cc1cccc(-c2nc3ccccc3c(=O)n2-n2cccc2)c1`, 4.11 µM [rising, single point].
On the same count and under the same terms, the figure for `C[C@]12CCC3C(CC[C@H]4C[C@@H](O)CC[C@]34C)C1[C@H]1CN=N[C@H]1[C@@H]2O` (some centres not stated) is 18.4 µM [rising, single point].
For the molecule `CC(Cc1ccccc1)NC(=O)Cc1ccc(N(C)C)cc1` (configuration not stated), under setting [1], the AC50 was 13 µM [rising, partial curve].
`CCN(CC)c1c([N+](=O)[O-])c(=O)n(C)c2ccccc12`: under setting [1], the concentration at half-maximal activity (AC50) was 35.5 µM [falling, single point].
For `CC(=O)NCC(=O)Nc1ccc(Br)cc1C(=O)c1ccccc1`, the AC50 under setting [1] is 35.5 µM [rising, single point].
As to `Cn1cccc1/C=C1\C(=O)NC(=O)N(Cc2ccco2)C1=O`, the AC50 under setting [1] is 35.5 µM [rising, single point].
Same read-out and setting: the figure for `CCCOc1ccc(C(=O)NCCc2ccccc2)cc1` is 35.5 µM [falling, single point]; for `CC(C)(O)[C@H]1O[C@H]2CC[C@@]3(C)[C@@](O)(CC[C@H]4Cc5c([nH]c6ccccc56)[C@@]43C)C2=CC1=O` it is 35.5 µM [falling, single point].
On to `FC(F)Oc1ccccc1/C=N/n1cnc2ccccc21`, for which the AC50 under setting [1] is 3.16 µM [rising, full curve, poor fit].
Still for that read-out and setting: the figure for `Cc1c(-c2cccc(Cl)c2)nc2ccccc2c1C(=O)N1CCC2(CC1)OCCO2` is 14.1 µM [rising, partial curve, poor fit]; for `CC(=O)N1N=C(c2cccnc2)CC1c1ccccc1O` (configuration not stated) it is 35.5 µM [rising, single point]; for `COc1ccc(-c2nn(CCC#N)cc2C(=O)NCc2ccccc2)cc1` it is 0.316 µM [rising, full curve, poor fit].
For `N#C/C(=C\c1ccc([N+](=O)[O-])o1)C(=O)Nc1ccc(F)cc1`, the concentration at half-maximal activity (AC50) under setting [1] was 11.2 µM [falling, partial curve, poor fit].
Consider `Cn1c(O)c(C(=Nc2ccccc2)SCc2ccccc2Cl)c(=O)n(C)c1=O`, for which the AC50 under setting [1] is 2.51 µM [falling, full curve].
The same measure, in the same setting: in the case of `O=C1NC(=S)NC(=O)C1C/C=C/c1ccccc1` it was 4.11 µM [falling, full curve, poor fit]; in that of `COc1ccc(OCCOc2cccc(C=C3C(=O)NC(=O)NC3=O)c2)cc1`, 5.01 µM [falling, partial curve].
Turning to `COc1ccccc1N=Nc1c(O)[nH]c(=S)[nH]c1=O`, the AC50 under setting [1] is 14.1 µM [falling, partial curve].
Turning to `CN(C)C(=O)Oc1ccc(-c2cn3cc(C(F)(F)F)ccc3n2)cc1`, under setting [1], the AC50 was 10.3 µM [rising, partial curve].
As to `O=C(c1ccccc1)C1NC1c1ccccc1` (configuration not stated), the AC50 under setting [1] is 15.8 µM [falling, single point].
The same measure, in the same setting: the figure for `Cc1ccc(N(C)C(=O)Oc2cccc3cccnc23)cc1` is 0.206 µM [rising, full curve, poor fit].
Same read-out and setting: the figure for `C=CCN1C(=O)C2(C(C(=O)OCC)=C(N)Oc3c2c(=O)oc2ccccc32)c2ccccc21` (configuration not stated) is 2.91 µM [falling, partial curve, poor fit]; for `CCCNc1oc(-c2cccc3ccccc23)nc1C#N` it is 29.1 µM [rising, single point]; for `O=P(OC1CCCCC1)(OC1CCCCC1)C(O)c1ccc(Cl)cc1Cl` (configuration not stated) it is 29.1 µM [rising, single point].
In the case of `OC1/C(=C/c2ccc(C(F)(F)F)cc2)N2CCC1CC2` (configuration not stated), under setting [1], the concentration at half-maximal activity (AC50) was 15.8 µM [rising, partial curve, poor fit].
Regarding `CCOP(=O)(OCC)C(Nc1cccc(C(F)(F)F)c1)c1ccc(Br)cc1` (configuration not stated), the half-maximal activity concentration (AC50) under setting [1] was 29.1 µM [falling, single point].
Same read-out and setting: in the case of `O=C(c1ccccc1)C1CCCN(Cc2nc(-c3cnccn3)no2)C1` (configuration not stated) it was 35.5 µM [falling, single point].
The same measure, in the same setting: the figure for `O=C(C[N+]12CCC(CC1)C(CO)C2)c1ccc(Br)cc1` (configuration not stated) is 1.78 µM [rising, full curve, poor fit].
The same measure, in the same setting: the figure for `N#CC1=C(N)C(C#N)(C#N)C(c2ccncc2)C2CN(C(=O)OCc3ccccc3)CC=C12` (configuration not stated) is 16.4 µM [falling, single point]; for `CCOc1ccc2nc(NC(=O)c3ccccn3)sc2c1` it is 7.94 µM [falling, partial curve].
In the case of `C=CC[C@@H](CC/C=C/C=C/CC/C=C\[C@@H]1CSC([C@@H]2C[C@@H]2C)=N1)OC`, the AC50 is 5.8 µM [rising, full curve] under setting [1] and 7.31 µM [falling, partial curve] under setting [2].
`O=C(NC1CN2CCC1CC2)c1cccc(Cl)c1` (configuration not stated): the AC50 under setting [1] is 20 µM [rising, partial curve, poor fit].
Same read-out and setting: in the case of `Cc1ccc2c(c1)CC1(CN2C)C(=O)NC(=O)N(c2cc(C)ccc2C)C1=O` (configuration not stated) it was 11.2 µM [rising, partial curve, poor fit]; in that of `Cc1ccc(-n2c(CNCc3ccc(F)cc3)nc3ccccc3c2=O)cc1`, 11.2 µM [falling, partial curve, poor fit]; in that of `CCOc1ccc(CNCCc2ccc3c(c2)OCO3)cc1`, 35.5 µM [falling, single point].
Same read-out and setting: in the case of `CCOc1ccccc1-n1c(O)c(C=Nc2ccc(N(CC)CC)cc2)c(=O)[nH]c1=O` it was 35.5 µM [rising, single point].
With `O=c1[nH]c(=O)n(Cc2ccccc2Cl)c(O)c1/C=C1/C=CC=N1`, the AC50 by setting is: under setting [1], 1 µM [rising, partial curve, poor fit]; under setting [2], 3.55 µM [falling, full curve].
As for `Cc1csc(Nc2ccc(C(=O)O)cc2)n1`, the half-maximal activity concentration (AC50) under setting [1] was 14.1 µM [falling, partial curve].
`O=c1[nH]c2c(c(=O)n1C1CCCCC1)CCC2`: the AC50 under setting [1] was 7.31 µM [falling, partial curve].
Regarding `COC(=O)C1=Nc2ccccc2/C1=C\c1c(O)n(-c2cc(OC)ccc2OC)c(=O)[nH]c1=O`, under setting [1], the AC50 is 16.4 µM [falling, partial curve, poor fit].
The same measure, in the same setting: in the case of `COCCN(C(=O)COC(=O)Cc1ccccc1)c1c(N)n(Cc2ccccc2)c(=O)[nH]c1=O` it was 6.51 µM [rising, single point].
On the same count and under the same terms, the figure for `Cn1c(=O)c2c(nc(N/N=C/c3c(O)n(-c4ccccc4)c(=S)[nH]c3=O)n2C)n(C)c1=O` is 29.1 µM [falling, single point]; for `COc1ccc(-c2nn(Cc3ccccc3)cc2C(=O)NC2CC2)cc1OC` it is 2.91 µM [rising, full curve, poor fit]; for `CCC(Oc1cc(Cl)ccc1Cl)C(=O)N1CCC2(CC1)OCCO2` (configuration not stated) it is 35.5 µM [falling, single point].
With `CNc1cc(Cl)c2nonc2c1[N+](=O)[O-]`, the AC50 under setting [1] was 12.6 µM [falling, partial curve].
As for `CN(C)C(=O)On1c(-c2ccccc2)nc2ccc(Cl)cc21`, the concentration at half-maximal activity (AC50) under setting [1] is 0.13 µM [falling, full curve, poor fit].
Still for that read-out and setting: the figure for `CCC(=Nc1ccc(OC)cc1OC)c1c(O)n(C2CCCCC2)c(=O)[nH]c1=O` is 8.91 µM [falling, partial curve, poor fit]; for `N=C(N)c1c(O)n(C2CCCCC2)c(=O)n(C2CCCCC2)c1=O` it is 2.06 µM [rising, full curve, poor fit]; for `CC(C)(C)P(=O)(c1ccncc1)N1CCCC1` (configuration not stated) it is 20.6 µM [falling, single point].
For `Cc1ccccc1C1=NCC(=O)N(CC(=O)NCc2ccco2)c2sc3c(c21)CCCC3`, the AC50 under setting [1] is 17.8 µM [falling, partial curve].
As to `NC(Cc1ccccc1)Cc1ccccc1`, under setting [1], the half-maximal activity concentration (AC50) is 3.98 µM [rising, single point].
Same read-out and setting: the figure for `COc1ccc(-n2c(/C=C/c3ccc(O)cc3)nc3ccccc3c2=O)cc1` is 15.8 µM [falling, single point].
With `COc1nc2ccccc2c(=O)n1-c1ccc(C)cc1`, the half-maximal activity concentration (AC50) under setting [1] is 9.2 µM [rising, partial curve].
`CCCCn1c(O)c(/C=N/NC(=O)c2ccncc2)c(=O)[nH]c1=O`: the AC50 under setting [1] is 4.47 µM [falling, partial curve, poor fit].
With `O=c1[nH]c(=O)n(Cc2ccccc2Cl)c(O)c1C=Nc1ccc(F)cc1`, the AC50 under setting [1] is 28.2 µM [falling, single point].
Consider `COc1cc2c(c(OC)c1OC)-c1ccc(O)cc1[C@@H](NC(C)=O)CC2`, for which the concentration at half-maximal activity (AC50) by setting is: under setting [1], 0.58 µM [rising, full curve]; under setting [2], 0.461 µM [falling, full curve].
In the case of `Oc1ccccc1-[n+]1c(-c2ccccc2)cc(-c2ccccc2)c(O)c1-c1ccccc1`, the AC50 under setting [1] was 18.4 µM [falling, single point].
Regarding `C#CC(=O)N(c1cc(OC)ccc1OC)C(C(=O)NC1CCCC1)c1cccs1` (configuration not stated), the AC50 under setting [1] is 11.2 µM [falling, partial curve].
Still for that read-out and setting: the figure for `Cc1cccc(-n2c(O)c(/C=C3/C(c4ccccc4)=Nc4ccccc43)c(=O)[nH]c2=O)c1` is 25.1 µM [falling, single point].
